{
  "source": "patent US7671074B2",
  "about": "“Sulfonylguanidine compounds and pharmaceutical uses thereof” (Gruenenthal GmbH, priority 2000, dated 2010)",
  "tested_on": "male Sprague-Dawley rats with L5/L6 spinal nerve ligatures",
  "assay": "In vivo experiments according to Chung (spinal nerve ligation, tactile withdrawal threshold)",
  "design": "species or system rat",
  "details": "Chung model",
  "protocol": "In male Sprague-Dawley rats spinal nerve ligatures were applied according to Kim and Chung (1992) to the left L5/L6 spinal nerves. At the same time spinal catheters were implanted according to Pogatzki et al. ^6 (2000). 4 to 6 days after the operation the tactile threshold baseline (withdrawal thresholds) was measured on the ipsilateral and contra lateral rear paw by an electronic vonFrey anaesthesiometer (IITC Life Science, USA). […] After the test and baseline measurement, gabapentin and substances according to the invention were administered. The tactile withdrawal thresholds were measured 30 minutes after administration. The results are expressed as ED50 and % maximal possible effect (% MPE; % of the maximal possible effect) on the ipsilateral side, in which the baseline is taken as 0% and the withdrawal threshold of a control group is taken as 100% MPE.",
  "note": "Some of these results come from one statement about several compounds together.",
  "data": [
    {"smiles": "Cc1ccc(S(=O)(=O)/N=C(\\N)NCc2ccccn2)cc1", "note": "[Example 1]", "values": [
      {"measurement": "duration of action", "result": "at least 30 hours"}
    ]},
    {"smiles": "N/C(=N\\S(=O)(=O)c1ccc(Cl)cc1)NCc1ccccn1", "note": "[Example 21, N-{amino-[(pyridin-2-yl-methyl)-amino]-methylene}-4-chlorobenzenesulfonamide]", "values": [
      {"measurement": "duration of action", "result": "at least 30 hours"}
    ]}
  ]
}
